Reference: paper PMC11343458, “Extracellular proteolysis of tandemly duplicated pheromone propeptides affords additional complexity to bacterial quorum sensing” (PLOS Biology, 2024)

Assays:
[1] = target: Rap^3T (Bacillus phage phi3T); test: crystal structure; sitting drops at 21°C, protein at 10 mg/ml, glycerol ethoxylate/tetrahydrofuran conditions; both purified
[2] = target: Rap^3T (Bacillus phage phi3T); test: thermal shift assay; Sypro Orange, 50 μm protein, 100 μm synthetic peptide, 20 mM Tris (pH 8), 250 mM NaCl (or filtered supernatant in the maturation assays), heated from 20 to 85°C; both purified
[3] = target: Rap^105 (Bacillus phage phi105); test: crystal structure; sitting drops at 21°C, protein at 10 mg/ml, glycerol ethoxylate/tetrahydrofuran conditions; both purified

B1: RRGHTA (peptide)
peptide: RRGHTA
[1]
  binding: binds

B2: RRGHTAS (peptide)
peptide: RRGHTAS
[1]
  binding: binds

B3: SRGHTS (peptide)
peptide: SRGHTS
[1]
  binding: binds

B4: RGHTS (peptide)
peptide: RGHTS
[1]
  binding: binds

B5: ERPVGT (peptide)
peptide: ERPVGT
[2]
  binding: no binding (tested: 100 μm)
[3]
  binding: binds

These are yes or no findings as the source states them, for the method shown. For part of these data: Binding can be weak; no strength is given.
